This series is described as follows: Body weight, blood glucose and general condition of treated diabetic rats. The series is classed as in vivo, rat. As to conditions: last 2 weeks of 8 weeks diabetes; for Blood glucose, Mean: group mean of 10 diabetic rats; for Blood glucose: individual diabetic rats. Here is the method: Methods: Diabetes was induced in mature (19 week old) male Sprague-Dawley by a single STZ injection (40-45 mg/kg i.p.). The diabetic state was monitored weekly using commercially available test strips for blood (tail vein) and urine glucose levels. Body weight was also monitored daily. The criteria for the diabetic state were: blood glucose>19.9 mM, glycosuria, and no evidence of body weight gain.
Methods: Diabetes was induced in mature (19 week old) male Sprague-Dawley by a single STZ injection (40-45 mg/kg i.p.). The diabetic state was monitored weekly using commercially available test strips for blood (tail vein) and urine glucose levels. Body weight was also be monitored daily. The criteria for the diabetic state were: blood glucose>19.9 mM, glycosuria, and no evidence of body weight gain.

The structures appear in SMILES notation. “And” between values parts separate entries of the source, which are not always exact repeats. Identical values can stand only once. Counter-ions that a name gives are not always drawn.

Consider `COc1ccc2c(c1OCc1ccccc1)C[C@@H](C(=O)O)N(C(=O)C(c1ccccc1)c1ccccc1)C2` [Compound 1 sodium salt, S-2-(diphenylacetyl)-5-benzyloxy-6-methoxy-1,2,3,4-tetrahydroisoquinoline-3-carboxylic acid], for which the “Blood glucose, Mean” value (0.01048 mg/kg daily by gavage) was found to be 33.58 mM; the “Blood glucose, Mean” value (0.0349 mg/kg daily by gavage) was 32.63 mM; the “Blood glucose, Mean” value (0.1048 mg/kg daily by gavage) came to 32.94 mM; the “Blood glucose, Mean” value (1.048 mg/kg daily by gavage) was 35.57 mM. The Blood glucose by setting is: (0.01048 mg/kg daily by gavage, 0.01048 mg/kg) 26.7 mM and 34.2 mM and 37.6 mM and 39.8 mM and 38.4 mM and 33.2 mM and 27.9 mM and 32.4 mM and 28.4 mM and 37.2 mM; (0.0349 mg/kg daily by gavage, 0.0349 mg/kg) 34.6 mM (2×) and 30.3 mM (2×) and 37.8 mM and 30.4 mM and 39.6 mM and 27.8 mM and 32.2 mM and 28.7 mM; (0.1048 mg/kg daily by gavage, 0.1048 mg/kg) 30.3 mM and 31.0 mM and 27.5 mM and 27.6 mM and 32.0 mM and 32.8 mM and 34.2 mM and 31.8 mM and 30.0 mM and 52.2 mM; (1.048 mg/kg daily by gavage, 1.048 mg/kg) 26.2 mM and 55.6 mM and 32.4 mM and 49.6 mM and 27.8 mM and 28.2 mM and 38.6 mM and 36.2 mM and 33.0 mM and 28.1 mM.

Source of the values: patent US9095587B2, “Methods and compositions for improved nerve conduction velocity” (Spinifex Pharmaceuticals Pty Ltd, priority 2010, dated 2015).
